No constants are given. Whether binding was seen depends on the method and setting. Some entries that bind do so weakly or less than the wild type.
Molecular target: DNJ-13 (C. elegans, unlabelled) (C. elegans) (UniProt Q20774)
Experiment: AUC; unlabeled BAG-1 and unlabeled DNJ-13, each alone; molecular weight, s20,w and D20,w compared with the labelled proteins; data not shown; both purified

Amino acid sequences for entries named in this document (tags omitted).
UniProt Q20774: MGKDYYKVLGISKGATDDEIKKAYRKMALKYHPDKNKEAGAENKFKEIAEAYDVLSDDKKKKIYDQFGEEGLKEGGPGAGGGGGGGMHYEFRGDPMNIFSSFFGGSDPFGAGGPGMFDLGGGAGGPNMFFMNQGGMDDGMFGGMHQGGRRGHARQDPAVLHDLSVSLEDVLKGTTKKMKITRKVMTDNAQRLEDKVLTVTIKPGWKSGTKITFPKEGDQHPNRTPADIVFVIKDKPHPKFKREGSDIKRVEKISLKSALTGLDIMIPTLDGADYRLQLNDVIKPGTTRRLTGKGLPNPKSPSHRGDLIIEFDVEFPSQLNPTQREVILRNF

binding: binds
Substance: DNJ-13 (C. elegans, unlabelled) (from UniProt Q20774 1-331)

From article PMC3315512
